Test results reported in US20260248969A1, “PEPTIDE MULTIMER PRODUCTS AND METHODS” (REGENTS OF THE UNIVERSITY OF MICHIGAN, priority 2023, published 2026).

Test system: human liver specimens
Test: Multimer staining of human liver specimens ex vivo (tissue microarray), fluorescence intensity and ROC
Procedure: Binding of Cy5.5-labeled peptide multimer was evaluated using human HCC specimens ex vivo. All experiments using human tissues were approved by the Michigan Medicine IRB (HUM00122873). A tissue microarray (TMA) was generated from n=120 liver specimens provided by the archived tissue bank in the Department of Pathology. Paraffin-embedded (FFPE) section slide was deparaffinized and conducted through antigen retrieval. Blocking procedure was performed with 5% goat serum for 1 hour at room temperature. The slide was first stained with the Cy5.5 labeled peptide multimer at 5 μM for 5 min at room temperature. The section was then incubated with primary antibodies using 1:200 dilution of primary recombinant rabbit anti-GPC3 antibody (#ab95363, Abcam), 1:500 dilution of primary recombinant mouse anti-CD44 antibody (#3570, Cell Signaling Technology), and AF594-labeled primary anti-EpCAM (#7319, Cell Signaling Technology) overnight at 4° C. After washing with 2% BSA in PBST, section was incubated with 1:500 dilution of AF488-labeled secondary goat anti-mouse IgG antibody (#ab150113, Abcam) and 1:500 dilution of AF532-labeled secondary goat anti-rabbit IgG antibody (#A-11029, Life Technologies) for 1 hour at room temperature, and mounted with Prolong Gold reagent containing DAPI at last (Invitrogen). The fluorescence images were collected using Leica Stellaris 5 (inverted), excitation at Aex=670 nm for the peptide multimer, and λex=488, 532, 594 nm for CD44, GPC3 and EpCAM antibody, respectively. Fluorescence intensities were quantified using Leica LAS AF Lite software. All slides were evaluated by an expert liver pathologist.

[1] = distinguish HCC from non-HCC (cirrhosis, adenoma, and normal)

Cy5.5-labeled peptide multimer: peptide multimer of GPC3-, CD44- and EpCAM-specific peptides labeled with Cy5.5 (peptide 1 ALLANHEELFQT; peptide 2 WKGWSYLWTQQA; peptide 3 HPDMFTRTHSHN; left off: things letters cannot carry; small tags and cut ends)
AUC (ROC) (distinguish HCC from cirrhosis): 0.89
sensitivity (ROC) (distinguish HCC from cirrhosis): 87%
specificity (ROC) (distinguish HCC from cirrhosis): 80%
AUC (ROC) [1]: 0.90
sensitivity (ROC) [1]: 90%
specificity (ROC) [1]: 80%
